The results in this text go back to publication PMC3459911.

The chains behind the UniProt entries cited, without tags or fusion partners.
UniProt Q8JZL2: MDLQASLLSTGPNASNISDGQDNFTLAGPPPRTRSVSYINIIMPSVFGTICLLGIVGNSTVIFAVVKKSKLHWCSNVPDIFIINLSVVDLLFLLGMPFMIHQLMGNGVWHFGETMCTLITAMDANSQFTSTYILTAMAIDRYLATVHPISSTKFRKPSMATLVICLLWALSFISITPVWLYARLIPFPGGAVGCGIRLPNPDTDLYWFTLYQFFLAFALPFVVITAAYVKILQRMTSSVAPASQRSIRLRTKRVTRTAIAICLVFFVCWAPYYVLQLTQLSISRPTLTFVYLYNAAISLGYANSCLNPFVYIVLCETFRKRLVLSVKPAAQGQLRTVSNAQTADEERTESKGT
UniProt P16858: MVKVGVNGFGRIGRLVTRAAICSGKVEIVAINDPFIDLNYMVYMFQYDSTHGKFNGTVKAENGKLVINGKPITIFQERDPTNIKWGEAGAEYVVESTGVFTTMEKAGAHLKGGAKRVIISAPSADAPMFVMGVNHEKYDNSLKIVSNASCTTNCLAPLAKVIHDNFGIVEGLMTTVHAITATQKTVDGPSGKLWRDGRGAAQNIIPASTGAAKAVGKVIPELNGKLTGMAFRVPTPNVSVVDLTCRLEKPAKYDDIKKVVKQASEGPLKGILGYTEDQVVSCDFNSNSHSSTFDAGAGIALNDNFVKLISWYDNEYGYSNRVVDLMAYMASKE
UniProt P30935: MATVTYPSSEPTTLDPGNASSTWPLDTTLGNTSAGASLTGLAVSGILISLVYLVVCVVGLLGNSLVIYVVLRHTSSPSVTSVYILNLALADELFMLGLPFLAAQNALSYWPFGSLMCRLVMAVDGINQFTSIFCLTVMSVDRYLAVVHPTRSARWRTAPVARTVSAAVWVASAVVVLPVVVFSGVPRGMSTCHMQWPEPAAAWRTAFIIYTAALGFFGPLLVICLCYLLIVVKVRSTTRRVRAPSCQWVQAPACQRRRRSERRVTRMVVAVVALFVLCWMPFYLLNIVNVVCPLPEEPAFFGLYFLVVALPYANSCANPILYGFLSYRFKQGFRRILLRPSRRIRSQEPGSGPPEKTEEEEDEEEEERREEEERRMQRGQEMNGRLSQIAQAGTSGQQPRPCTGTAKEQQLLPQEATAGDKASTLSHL
UniProt P63142: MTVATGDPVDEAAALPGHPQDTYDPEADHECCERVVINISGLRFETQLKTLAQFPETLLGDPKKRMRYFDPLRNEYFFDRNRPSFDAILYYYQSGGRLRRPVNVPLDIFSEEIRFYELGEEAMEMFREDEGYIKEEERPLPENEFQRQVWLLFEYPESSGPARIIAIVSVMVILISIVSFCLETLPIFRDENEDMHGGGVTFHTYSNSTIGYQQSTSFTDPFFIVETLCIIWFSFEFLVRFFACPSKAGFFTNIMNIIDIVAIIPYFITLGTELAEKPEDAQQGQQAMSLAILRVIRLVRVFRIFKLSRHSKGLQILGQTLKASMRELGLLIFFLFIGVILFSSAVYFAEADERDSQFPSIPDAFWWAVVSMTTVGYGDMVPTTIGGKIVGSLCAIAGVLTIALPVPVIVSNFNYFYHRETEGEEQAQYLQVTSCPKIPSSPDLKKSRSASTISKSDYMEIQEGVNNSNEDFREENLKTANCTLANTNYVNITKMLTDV

Assay [1] concerns the target endogenous melanin-concentrating hormone receptor 1 (Mchr1) of mouse hippocampus (mouse (endogenous in hippocampus)) (UniProt Q8JZL2). The assay is described as follows: co-IP; endogenous proteins; membrane protein enriched lysate of the hippocampus of 5 week old WT mice precipitated overnight at 4°C with goat anti-Mchr1 (goat IgG as negative control), blotted with rabbit anti-Sstr3.

The target in assay [2] is myc-tagged glyceraldehyde-3-phosphate dehydrogenase (Gapdh-myc) (UniProt P16858). The assay is described as follows: co-IP; HEK293T cells cotransfected with Sstr3 and Mchr1-myc or Gapdh-myc; lysate (1% NP-40, 150 mM NaCl, Tris pH 8.0) precipitated overnight at 4°C with anti-myc (9E10) on protein A-sepharose, blotted with anti-Sstr3.
Assay [3] has as its target myc-tagged melanin-concentrating hormone receptor 1 (Mchr1-myc) (UniProt Q8JZL2). The assay is described as above.
In assay [4] the target is somatostatin receptor 3 (Sstr3), untagged, expressed in HEK293T cells (UniProt P30935). The assay is described as follows: co-IP; reverse experiment: HEK293T cells cotransfected with Sstr3 and Mchr1-myc or Gapdh-myc; lysate precipitated overnight at 4°C with goat anti-Sstr3 on protein A-sepharose, blotted with anti-myc.
The target in assay [5] is Mchr1 fused at the C-terminus to ECFP (UniProt Q8JZL2). The assay is described as follows: FRET or BRET; sensitized emission FRET in live HEK293T cells co-transfected with Mchr1-ECFP and Sstr3-EYFP, imaged after 48 hours; cilium excluded from the analysis; n = 40 cells.
In another assay the target is CFP-Kv1.2 (UniProt P63142). The assay is described as follows: FRET or BRET; sensitized emission FRET, positive and negative controls (CFP-Kv1.2 with YFP-Kvβ2 or YFP-Kvβ2K235E); cells not stated for the controls.

Results are given in words; binding and its absence hold for the method and conditions named. In cells and extracts the contact can be indirect. Some results given as binding are weak or reduced against the parent protein; the word gives no strength. For some of these results: Sequences can lack the tags named with a protein.

As for “endogenous somatostatin receptor 3 (Sstr3) of mouse hippocampus (from UniProt P30935 1-428)”, the binding result in assay [1] is recorded as “binds”. As for “somatostatin receptor 3 (Sstr3), untagged, expressed in HEK293T cells (from UniProt P30935 1-428)”, the figures for the binding entry in assay [2] and in assay [3] were “no binding” and “binds”, respectively. Take “myc-tagged melanin-concentrating hormone receptor 1 (Mchr1-myc) (from UniProt Q8JZL2 1-353)”: in assay [4], the binding entry is “binds”. In the case of “Sstr3 fused at the C-terminus to EYFP (from UniProt P30935 1-428) (receptor)”, the binding result in assay [5] was “binds”.

B1: YFP-Kvβ2 (protein, UniProt P62483 1-367)
chain: MYPESTTGSPARLSLRQTGSPGMIYSTRYGSPKRQLQFYRNLGKSGLRVSCLGLGTWVTFGGQITDEMAEHLMTLAYDNGINLFDTAEVYAAGKAEVVLGNIIKKKGWRRSSLVITTKIFWGGKAETERGLSRKHIIEGLKASLERLQLEYVDVVFANRPDPNTPMEETVRAMTHVINQGMAMYWGTSRWSSMEIMEAYSVARQFNLIPPICEQAEYHMFQREKVEVQLPELFHKIGVGAMTWSPLACGIVSGKYDSGIPPYSRASLKGYQWLKDKILSEEGRRQQAKLKELQAIAERLGCTLPQLAIAWCLRNEGVSSVLLGASNAEQLMENIGAIQVLPKLSSSIVHEIDSILGNKPYSKKDYRS
Turning to B1, the binding result with CFP-Kv1.2 is recorded as “binds”.

B2: YFP-Kvβ2K235E (protein, UniProt P62483 1-367)
chain: MYPESTTGSPARLSLRQTGSPGMIYSTRYGSPKRQLQFYRNLGKSGLRVSCLGLGTWVTFGGQITDEMAEHLMTLAYDNGINLFDTAEVYAAGKAEVVLGNIIKKKGWRRSSLVITTKIFWGGKAETERGLSRKHIIEGLKASLERLQLEYVDVVFANRPDPNTPMEETVRAMTHVINQGMAMYWGTSRWSSMEIMEAYSVARQFNLIPPICEQAEYHMFQREKVEVQLPELFHEIGVGAMTWSPLACGIVSGKYDSGIPPYSRASLKGYQWLKDKILSEEGRRQQAKLKELQAIAERLGCTLPQLAIAWCLRNEGVSSVLLGASNAEQLMENIGAIQVLPKLSSSIVHEIDSILGNKPYSKKDYRS
For B2, in the assay with CFP-Kv1.2, the binding result was “no binding”.
